The values that follow come from patent publication US20050214387A1, “Low-dose potassium supplementation for the prevention and treatment of hypertension” (priority 2002, published 2005).

In data set [1] the test system is apparently healthy volunteers. Kind of data set: Low-dose potassium trial: heart rate. In kind it is in vivo, human. The note with it: n = 30, mean ± SEM.
A short description of data set [2]: Low-dose potassium trial: body mass index. The data set is classed as in vivo, human. The note with it: within potassium group, n = 30, mean ± SEM.

For part of these data: The amount applied is not stated for every result.

As for `[Cl-].[K+]` [Potassium, potassium chloride], in data set [1], the “Heart rate Week 3” value is on record as 66.07 ± 1.54 beats/min and the “Heart rate Week 6” value stood at 66.77 ± 1.35 beats/min. In data set [1] (within potassium group), the “Heart rate Week 3 − Week 0 mean difference” value was −0.50 ± 0.99 beats/min, the “Heart rate Week 6 − Week 0 mean difference” value stood at 0.20 ± 0.85 beats/min and the “Heart rate Week 6 − Week 3 mean difference” value is recorded as 0.70 ± 0.98 beats/min. Further, in data set [2], the “BMI Week 6 − Week 0 mean difference” value was determined as 0.03 ± 0.07 kg/m^2.
